In PubChem BioAssay (Tox21):
Inconclusive means that the source gave no clear call. Such entries were picked first, then a sample of the others. Potencies of inconclusive entries are doubtful fits and often do not repeat. The source holds several records for some structures; these can differ, active in one and inactive in another. The source made the active and inactive calls. Unless noted, calls follow the shape of the dose curve; as a rule, active = well fitted curve in the direction sought with a large enough effect in the repeat runs; inconclusive = weak or mixed curves; inactive = no such curve, though single readings can be large; an effect the other way counts as inactive or inconclusive.

Protein sequences, listed by entry. Tags and fused reporters are not part of them. Lines headed by an entry give the natural chain unless they say otherwise; changes in a name come on top.
UniProt P19793: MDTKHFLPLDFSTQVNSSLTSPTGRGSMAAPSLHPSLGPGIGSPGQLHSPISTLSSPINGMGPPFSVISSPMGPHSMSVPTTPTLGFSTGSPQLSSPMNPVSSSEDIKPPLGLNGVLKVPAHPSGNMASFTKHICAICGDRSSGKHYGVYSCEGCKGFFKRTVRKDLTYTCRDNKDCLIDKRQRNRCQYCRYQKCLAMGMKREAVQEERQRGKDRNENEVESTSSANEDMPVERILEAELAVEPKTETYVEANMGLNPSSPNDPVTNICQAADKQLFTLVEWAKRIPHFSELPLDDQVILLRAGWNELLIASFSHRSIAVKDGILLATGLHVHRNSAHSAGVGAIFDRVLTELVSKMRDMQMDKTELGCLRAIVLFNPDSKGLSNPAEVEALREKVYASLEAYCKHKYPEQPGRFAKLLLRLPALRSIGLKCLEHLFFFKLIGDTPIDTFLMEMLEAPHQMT

What was measured:
[1] = biological target: Retinoic acid receptor RXR-alpha (Homo sapiens) (UniProt P19793); experiment: qHTS assay to identify small molecule agonists of the RXR signaling pathway (AID 1159527; calls by dose curve; also: nearly all actives have a fitted effect of over 35% in size; as to activation: % is scaled to controls: 0 for no effect and ±100 for the full control effect); conditions: HEK293T RXRa-UAS-bla, beta-lactamase ratio, 16 h; activation: at 76.8 µM (top of the series) unless noted
Summary of the method: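 qHTS of the Tox21 10K library in GeneBLAzer RXR-alpha HEK 293T cells carrying a beta-lactamase reporter […]; 16 hr treatment, 9-cis retinoic acid as agonist control, FRET read-out.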

[2] = qHTS assay to identify small molecule antagonists of the retinoic acid receptor (RAR) signaling pathway (AID 1159552; also: nearly all actives have a fitted effect of over 50% in size)
Summary of the method: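 Quantitative HTS in C3RL4 RARE-luciferase reporter cells. Compounds were added with 1 uM (final) retinol; luminescence was read after 6 hr.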

[3] = qHTS assay to identify small molecule agonists of the retinoic acid receptor (RAR) signaling pathway (AID 1159553); conditions: C3RL4 RARE luciferase reporter, agonist, 6 h; for Potency: activation: at 73.3 µM (top of the series) unless noted; as to activation: % is scaled to controls: 0 for no effect and ±100 for the full control effect
Summary of the method: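 In this cell-based screen, 1,000 C3RL4 cells per well were cultured overnight, dosed with test chemicals in DMSO for 6 hr, and assessed for RARE luciferase luminescence.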

[4] = qHTS assay to identify small molecule antagonists of the estrogen related receptor signaling pathway with the pleiotropic PPARgamma coactivator (PGC) cell viability counter screen (AID 1224822;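 also: viability read after 17.5 h compound exposure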)
Summary of the method: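 17.5 h compound treatment of PGC/ERR cells at 37 C; readout CellTiter-Fluor fluorescence; run alongside the PGC/ERR antagonist screen to flag cytotoxic compounds.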

[5] = qHTS assay to identify small molecule agonists of the estrogen related receptor (ERR) signaling pathway (AID 1224820)
Summary of the method: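 An ERR cell line provided by NTP was seeded at 2,000 cells per well and allowed to settle for 6 h before compounds in DMSO were added. After 18 h at 37 C, luciferase activity was measured by One-Glo luminescence.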
Potency is read from the fitted curve at half-maximal effect.

CC1=CC(C)(C)Nc2ccccc21
Potency [1]: inactive
Potency [2]: inconclusive: 51.7 µM [inhibitor, partial curve, poor fit]
Potency [3]: inconclusive: 65.1 µM [activator, partial curve]

CCC(=O)O[C@]1(C(=O)COC)[C@@H](C)C[C@H]2[C@@H]3CCC4=CC(=O)C=C[C@]4(C)C3(F)[C@@H](O)C[C@@]21C (some centres undefined)
Potency [1]: inconclusive: 26.8 µM [rising, partial curve, poor fit]
Potency [2]: inconclusive: 21.1 µM [inhibitor, partial curve, poor fit]

CCCc1nn(C)c2c(=O)[nH]c(-c3cc(S(=O)(=O)N4CCN(C)CC4)ccc3OCC)nc12
Potency [1]: inactive
Potency [2]: inconclusive: 13.3 µM [inhibitor, partial curve]

CC(=O)OCC(=O)[C@H]1CC[C@H]2[C@@H]3CCC4=CC(=O)CC[C@]4(C)[C@H]3CC[C@]12C
Potency [1]: inconclusive: 37.9 µM [rising, partial curve, poor fit]
Potency [2]: inconclusive: 10.6 µM [inhibitor, partial curve, poor fit]
Potency [3]: inactive

CC(C)O
Potency [1]: inconclusive: 66.2 µM [inhibitor]
Potency [2]: inconclusive: 52.1 µM [inhibitor, single point]
Potency [3]: inconclusive: 52.1 µM [inhibitor, partial curve, poor fit]

CCCCCCCCCCCCCCC1CO1 (centres undefined)
activation [1]: inconclusive: 24.8%
Potency [2]: inactive

COc1ccc2c(c1)C(=O)N(CCc1ccc(S(=O)(=O)NC(=O)NC3CCCCC3)cc1)C(=O)C2(C)C
Potency [1]: inactive
Potency [2]: inconclusive: 0.75 µM [inhibitor, full curve]

O=C(O)c1ccc(O)c(O)c1
Potency [1]: inconclusive: 24.5 µM [activator, partial curve]
Potency [2]: inactive

CCCCCCCCOC(=O)CCCCCCCCC(=O)OCCCCCCCC
Potency [1]: active: 9.77 µM
Potency [2]: inconclusive: 30.6 µM [inhibitor, full curve]

CC1=CC(=O)/C(=C(/C)O)C(=O)O1
activation [1]: inconclusive: 5.26%
Potency [2]: inactive

CC(C)C[C@H](NC(=O)CNC(=O)[C@H](Cc1ccc(O)cc1)NC(=O)[C@H](CO)NC(=O)[C@H](Cc1c[nH]c2ccccc12)NC(=O)[C@H](Cc1cnc[nH]1)NC(=O)[C@@H]1CCC(=O)N1)C(=O)N[C@@H](CCCN=C(N)N)C(=O)N1CCC[C@H]1C(=O)NCC(N)=O (stereo in doubt)
Potency [1]: inactive
Potency [2]: inconclusive: 18.8 µM [inhibitor, full curve, poor fit]

Nc1ccc(Oc2cccc(Oc3ccc(N)cc3)c2)cc1
Potency [1]: inconclusive: 1.95 µM
Potency [2]: active: 24.3 µM

CCC(Cc1ccccc1)(C(=O)c1ccc(N2CCOCC2)cc1)N(C)C (centres undefined)
Potency [1]: inconclusive: 54.9 µM
Potency [2]: inconclusive: 61.1 µM [inhibitor, partial curve, poor fit]
Potency [3]: inactive

CN(C)c1ccc(CCO)cc1
activation [1]: inconclusive: -23.3%
Potency [2]: inconclusive: 27.1 µM [inhibitor, partial curve, poor fit]
Potency [3]: inactive

N#C/C(=C1/SC[C@@H](c2ccc(Cl)cc2Cl)S1)n1ccnc1
Potency [1]: inconclusive: 30.1 µM
Potency [2]: inconclusive: 23.7 µM [inhibitor, partial curve]

O=P(OC(CCl)CCl)(OC(CCl)CCl)OC(CCl)CCl
Potency [1]: inconclusive: 12.3 µM [activator, partial curve, poor fit]
Potency [2]: active: 27.3 µM

CC(C)=NNC(N)=S
Potency [1]: inconclusive: 11 µM [inhibitor, full curve]
Potency [2]: inconclusive: 77 µM [inhibitor, single point]

COC(=O)c1ccc(NC(C)=O)cc1OC
Potency [1]: inactive
Potency [2]: inactive

OCCC1CCCCN1 (centres undefined)
activation [1]: inconclusive: 23.6%
Potency [2]: inactive

Clc1ccc(Cn2c(CN3CCCC3)nc3ccccc32)cc1
Potency [2]: inconclusive: 29.8 µM [inhibitor, partial curve, poor fit]
Potency [4]: inconclusive: 25.6 µM [cytotoxic]

COC(=O)c1cccnc1
activation ([3]; at 73.3 µM (top of the series)): inactive: 0.8%

CCCCC(=O)O
activation ([3]; at 94.8 µM (top of the series)): inactive: -0.0394%

O=C(Nc1ccccc1)c1cc([N+](=O)[O-])ccc1Cl
Potency [5]: inconclusive: 7.5 µM [activator, partial curve, poor fit]

COC(=O)[C@@H]1[C@H]2C[C@H]3c4[nH]c5ccccc5c4CCN3C[C@@H]2CC[C@@H]1O
Potency [5]: inconclusive: 20.3 µM [activator]
